Test results as given in the supplement of paper PMC10849652.
Some of the results follow.

The chains behind the UniProt entries cited, without tags or fusion partners. Where a name states a change or a piece, a line headed by the entry shows the natural chain unless it says otherwise.
UniProt O94889: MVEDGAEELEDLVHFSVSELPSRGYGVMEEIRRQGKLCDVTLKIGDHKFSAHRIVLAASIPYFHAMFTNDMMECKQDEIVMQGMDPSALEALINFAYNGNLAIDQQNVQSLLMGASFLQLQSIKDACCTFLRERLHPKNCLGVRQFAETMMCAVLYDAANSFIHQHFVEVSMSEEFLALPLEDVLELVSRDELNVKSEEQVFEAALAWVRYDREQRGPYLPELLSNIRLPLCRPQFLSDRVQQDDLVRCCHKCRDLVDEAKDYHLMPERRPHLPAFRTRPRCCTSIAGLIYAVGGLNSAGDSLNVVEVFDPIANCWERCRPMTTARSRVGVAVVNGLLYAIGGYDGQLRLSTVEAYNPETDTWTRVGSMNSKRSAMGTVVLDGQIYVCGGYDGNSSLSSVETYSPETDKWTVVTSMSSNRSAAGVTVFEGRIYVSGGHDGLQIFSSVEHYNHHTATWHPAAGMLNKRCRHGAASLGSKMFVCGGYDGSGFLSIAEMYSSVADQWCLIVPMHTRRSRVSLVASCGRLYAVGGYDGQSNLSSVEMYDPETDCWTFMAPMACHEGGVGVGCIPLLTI
UniProt Q9NS87: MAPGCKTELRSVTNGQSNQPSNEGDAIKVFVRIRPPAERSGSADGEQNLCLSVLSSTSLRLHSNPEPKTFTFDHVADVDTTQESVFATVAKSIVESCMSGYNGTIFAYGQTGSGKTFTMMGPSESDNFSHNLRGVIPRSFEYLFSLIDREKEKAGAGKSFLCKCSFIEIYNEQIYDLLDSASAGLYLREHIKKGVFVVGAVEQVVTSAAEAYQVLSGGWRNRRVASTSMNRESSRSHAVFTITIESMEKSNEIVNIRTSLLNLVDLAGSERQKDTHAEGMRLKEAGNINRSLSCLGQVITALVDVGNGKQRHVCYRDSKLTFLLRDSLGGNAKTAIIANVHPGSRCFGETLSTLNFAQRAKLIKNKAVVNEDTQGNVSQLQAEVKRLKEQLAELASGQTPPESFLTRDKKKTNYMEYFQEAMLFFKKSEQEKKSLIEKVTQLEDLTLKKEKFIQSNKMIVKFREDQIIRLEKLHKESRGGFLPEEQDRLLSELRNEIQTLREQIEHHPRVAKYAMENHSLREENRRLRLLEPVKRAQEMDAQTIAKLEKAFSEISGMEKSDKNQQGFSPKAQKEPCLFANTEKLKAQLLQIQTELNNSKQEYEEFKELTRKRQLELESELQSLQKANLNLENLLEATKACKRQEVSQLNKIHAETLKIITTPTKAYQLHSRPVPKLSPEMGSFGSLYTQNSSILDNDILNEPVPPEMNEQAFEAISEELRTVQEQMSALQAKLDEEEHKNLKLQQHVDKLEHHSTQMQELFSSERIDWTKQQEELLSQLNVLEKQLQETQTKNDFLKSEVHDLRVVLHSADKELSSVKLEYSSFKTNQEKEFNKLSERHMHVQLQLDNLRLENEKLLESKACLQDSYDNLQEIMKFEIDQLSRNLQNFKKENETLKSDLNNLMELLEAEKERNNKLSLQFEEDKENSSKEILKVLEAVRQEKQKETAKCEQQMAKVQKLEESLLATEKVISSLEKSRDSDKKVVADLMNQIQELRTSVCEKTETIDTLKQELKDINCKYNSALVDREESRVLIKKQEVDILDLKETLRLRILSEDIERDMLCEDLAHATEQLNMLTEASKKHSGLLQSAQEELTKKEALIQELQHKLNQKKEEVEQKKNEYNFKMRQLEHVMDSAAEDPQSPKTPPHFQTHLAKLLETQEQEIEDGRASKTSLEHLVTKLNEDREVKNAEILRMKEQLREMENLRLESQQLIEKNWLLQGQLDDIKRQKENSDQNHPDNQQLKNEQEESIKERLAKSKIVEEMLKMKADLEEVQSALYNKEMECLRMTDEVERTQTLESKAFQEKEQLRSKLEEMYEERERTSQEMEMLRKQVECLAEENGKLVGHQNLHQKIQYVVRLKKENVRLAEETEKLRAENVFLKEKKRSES
UniProt Q13601: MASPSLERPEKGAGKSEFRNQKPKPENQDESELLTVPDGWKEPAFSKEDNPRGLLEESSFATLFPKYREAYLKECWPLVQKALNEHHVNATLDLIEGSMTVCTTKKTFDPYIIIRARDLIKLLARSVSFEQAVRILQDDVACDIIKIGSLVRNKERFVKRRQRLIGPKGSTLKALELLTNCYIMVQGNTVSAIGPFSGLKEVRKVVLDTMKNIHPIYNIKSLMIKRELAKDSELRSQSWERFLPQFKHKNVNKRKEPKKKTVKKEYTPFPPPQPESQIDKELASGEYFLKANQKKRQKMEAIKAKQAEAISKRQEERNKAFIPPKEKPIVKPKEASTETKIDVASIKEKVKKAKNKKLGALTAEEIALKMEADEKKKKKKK
UniProt P83111: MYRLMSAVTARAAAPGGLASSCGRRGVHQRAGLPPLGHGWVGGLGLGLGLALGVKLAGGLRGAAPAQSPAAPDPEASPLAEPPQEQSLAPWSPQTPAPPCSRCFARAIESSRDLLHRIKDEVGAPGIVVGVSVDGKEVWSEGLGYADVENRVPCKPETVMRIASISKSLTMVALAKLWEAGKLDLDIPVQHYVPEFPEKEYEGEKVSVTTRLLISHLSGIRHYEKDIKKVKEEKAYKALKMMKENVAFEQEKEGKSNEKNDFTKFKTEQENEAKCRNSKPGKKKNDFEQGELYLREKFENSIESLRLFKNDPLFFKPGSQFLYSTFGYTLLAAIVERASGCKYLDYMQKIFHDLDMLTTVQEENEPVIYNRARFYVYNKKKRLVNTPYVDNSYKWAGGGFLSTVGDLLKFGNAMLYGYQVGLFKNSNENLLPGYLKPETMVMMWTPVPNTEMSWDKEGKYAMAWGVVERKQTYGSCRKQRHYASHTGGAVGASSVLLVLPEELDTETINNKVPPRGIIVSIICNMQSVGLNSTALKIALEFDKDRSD
UniProt Q9BQD3: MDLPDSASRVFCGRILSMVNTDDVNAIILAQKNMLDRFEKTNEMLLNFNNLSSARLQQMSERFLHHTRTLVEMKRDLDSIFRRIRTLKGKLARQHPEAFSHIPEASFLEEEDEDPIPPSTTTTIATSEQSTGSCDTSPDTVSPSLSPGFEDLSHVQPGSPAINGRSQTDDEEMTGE
UniProt Q16773: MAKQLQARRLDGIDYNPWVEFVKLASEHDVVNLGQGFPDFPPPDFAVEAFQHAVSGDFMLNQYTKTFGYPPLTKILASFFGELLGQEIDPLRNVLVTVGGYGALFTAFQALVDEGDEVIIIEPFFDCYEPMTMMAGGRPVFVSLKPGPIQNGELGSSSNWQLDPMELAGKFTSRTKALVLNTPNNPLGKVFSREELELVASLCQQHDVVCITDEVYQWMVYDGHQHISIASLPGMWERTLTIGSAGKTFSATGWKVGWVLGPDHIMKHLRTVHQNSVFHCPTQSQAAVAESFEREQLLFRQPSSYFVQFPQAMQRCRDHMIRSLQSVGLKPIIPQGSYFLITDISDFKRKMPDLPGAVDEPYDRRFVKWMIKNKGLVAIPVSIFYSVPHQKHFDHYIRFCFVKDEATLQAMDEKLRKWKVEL
UniProt O60870: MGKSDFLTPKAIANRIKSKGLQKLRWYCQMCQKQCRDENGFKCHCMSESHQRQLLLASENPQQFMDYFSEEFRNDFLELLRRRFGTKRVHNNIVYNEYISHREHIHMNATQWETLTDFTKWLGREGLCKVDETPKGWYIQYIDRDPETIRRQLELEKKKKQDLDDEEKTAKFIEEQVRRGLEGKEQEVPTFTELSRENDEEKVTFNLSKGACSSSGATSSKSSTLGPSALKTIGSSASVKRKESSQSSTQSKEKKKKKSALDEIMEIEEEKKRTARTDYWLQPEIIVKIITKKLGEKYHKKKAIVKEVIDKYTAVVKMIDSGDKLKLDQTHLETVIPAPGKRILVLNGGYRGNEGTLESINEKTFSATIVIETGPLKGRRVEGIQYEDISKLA
UniProt Q96EK9: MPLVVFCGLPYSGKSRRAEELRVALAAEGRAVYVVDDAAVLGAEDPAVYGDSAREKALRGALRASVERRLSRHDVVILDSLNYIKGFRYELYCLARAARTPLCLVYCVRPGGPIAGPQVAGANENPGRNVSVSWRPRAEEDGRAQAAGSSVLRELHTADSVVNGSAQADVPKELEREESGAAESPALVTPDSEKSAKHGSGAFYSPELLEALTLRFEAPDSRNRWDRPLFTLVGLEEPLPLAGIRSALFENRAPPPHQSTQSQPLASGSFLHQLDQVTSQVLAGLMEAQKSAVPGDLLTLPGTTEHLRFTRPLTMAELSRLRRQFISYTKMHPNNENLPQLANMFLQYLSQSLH
UniProt Q8N371: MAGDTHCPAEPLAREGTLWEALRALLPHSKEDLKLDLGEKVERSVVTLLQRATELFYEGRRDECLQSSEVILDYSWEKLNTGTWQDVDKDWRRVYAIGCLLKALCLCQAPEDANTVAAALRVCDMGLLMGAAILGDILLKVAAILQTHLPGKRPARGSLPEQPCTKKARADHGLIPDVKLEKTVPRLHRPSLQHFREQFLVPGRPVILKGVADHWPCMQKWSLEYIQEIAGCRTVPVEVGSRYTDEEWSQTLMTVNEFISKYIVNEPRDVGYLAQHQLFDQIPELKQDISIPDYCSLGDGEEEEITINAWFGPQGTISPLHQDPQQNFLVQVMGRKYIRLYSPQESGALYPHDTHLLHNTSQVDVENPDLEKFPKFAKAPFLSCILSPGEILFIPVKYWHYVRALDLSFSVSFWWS
UniProt Q14145, whole entry, looked up: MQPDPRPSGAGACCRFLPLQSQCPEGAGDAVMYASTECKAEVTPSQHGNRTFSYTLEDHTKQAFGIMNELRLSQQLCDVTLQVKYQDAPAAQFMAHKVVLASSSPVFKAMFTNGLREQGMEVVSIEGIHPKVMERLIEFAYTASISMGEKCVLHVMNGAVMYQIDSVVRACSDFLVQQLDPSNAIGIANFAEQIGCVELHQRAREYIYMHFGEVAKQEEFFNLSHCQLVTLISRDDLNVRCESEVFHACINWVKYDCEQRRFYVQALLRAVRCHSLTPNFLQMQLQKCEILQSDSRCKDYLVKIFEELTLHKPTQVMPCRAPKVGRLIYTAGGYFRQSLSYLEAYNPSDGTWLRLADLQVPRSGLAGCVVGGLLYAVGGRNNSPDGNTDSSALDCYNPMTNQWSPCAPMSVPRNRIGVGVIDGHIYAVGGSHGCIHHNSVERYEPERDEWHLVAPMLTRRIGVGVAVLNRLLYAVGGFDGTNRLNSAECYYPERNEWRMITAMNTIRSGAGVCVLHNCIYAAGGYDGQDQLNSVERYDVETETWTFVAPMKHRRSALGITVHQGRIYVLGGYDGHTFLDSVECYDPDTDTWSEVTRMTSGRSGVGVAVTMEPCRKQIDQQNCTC
UniProt Q6YP21: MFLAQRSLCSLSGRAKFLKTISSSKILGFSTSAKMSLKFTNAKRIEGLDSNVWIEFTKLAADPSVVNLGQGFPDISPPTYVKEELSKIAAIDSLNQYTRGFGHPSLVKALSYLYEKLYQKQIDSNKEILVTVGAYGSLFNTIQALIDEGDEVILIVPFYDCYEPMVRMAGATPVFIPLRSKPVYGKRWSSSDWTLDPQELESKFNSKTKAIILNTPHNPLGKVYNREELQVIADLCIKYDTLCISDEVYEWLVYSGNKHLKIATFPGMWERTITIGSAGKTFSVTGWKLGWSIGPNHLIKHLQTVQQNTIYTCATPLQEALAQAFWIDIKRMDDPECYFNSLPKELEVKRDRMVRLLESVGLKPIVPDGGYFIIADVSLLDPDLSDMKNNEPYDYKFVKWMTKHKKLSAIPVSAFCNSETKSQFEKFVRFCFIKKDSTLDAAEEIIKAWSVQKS
UniProt Q71RC2, whole entry, looked up: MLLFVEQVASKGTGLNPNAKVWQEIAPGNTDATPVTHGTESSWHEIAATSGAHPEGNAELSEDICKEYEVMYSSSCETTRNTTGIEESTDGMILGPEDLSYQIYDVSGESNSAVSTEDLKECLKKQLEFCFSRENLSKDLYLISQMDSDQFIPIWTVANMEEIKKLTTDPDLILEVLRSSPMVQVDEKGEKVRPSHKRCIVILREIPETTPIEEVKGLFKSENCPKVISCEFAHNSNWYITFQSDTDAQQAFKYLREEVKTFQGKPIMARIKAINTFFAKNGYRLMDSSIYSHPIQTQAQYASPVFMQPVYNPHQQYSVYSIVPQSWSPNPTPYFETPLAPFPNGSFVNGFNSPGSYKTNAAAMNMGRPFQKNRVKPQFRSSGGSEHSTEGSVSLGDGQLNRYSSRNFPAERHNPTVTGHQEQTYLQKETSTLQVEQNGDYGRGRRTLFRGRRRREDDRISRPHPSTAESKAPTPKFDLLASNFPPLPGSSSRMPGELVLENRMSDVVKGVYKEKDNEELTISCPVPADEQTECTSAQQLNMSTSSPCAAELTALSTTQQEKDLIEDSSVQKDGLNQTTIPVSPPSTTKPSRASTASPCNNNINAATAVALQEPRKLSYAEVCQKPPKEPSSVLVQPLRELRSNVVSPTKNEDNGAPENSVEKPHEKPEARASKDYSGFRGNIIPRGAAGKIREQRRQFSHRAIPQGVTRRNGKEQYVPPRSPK

compound: CC(C)(C)Cn1c(N)nc2ccc(-c3[nH]c(C(C)(C)C)nc3-c3ccc(F)cc3)nc21 [ralimetinib]; assay: log2 fold change, soluble protein after heating vs DMSO (PISA); higher = thermal stabilisation; K562 lysate, 10 uM; active = over 0.2 and 3.5 SD of the protein, either way, in both replicates (recomputed)
How it was run: (§1)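 Log-two fold change in thermal stability relative to solvent controls is reported from duplicates. For each sample, crude K562 extract from dounce-homogenised pellets in PBS pH 7.4 with 1 mM MgCl2, at 1 mg/mL protein, was treated with 10 μM compound for 30 min. Aliquots heated for 3 min across 48°C-58°C were pooled, brought to 0.5% NP-40 at 4°C and cleared at 21,000xg for 90 min. The supernatant was quantified by TMTpro 16plex LC-MS/MS with channel sums equalised.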

log2 fold change, inactive:
KLHL18 (UniProt O94889) 0.026
KIF15 (UniProt Q9NS87) 0.008
KRR1 (UniProt Q13601) 0.035
LACTB (UniProt P83111) -0.011
KXD1 (UniProt Q9BQD3) -0.053
KMT2D isoform 3 (UniProt O14686) 0.021
KYAT1 (UniProt Q16773) -0.006
KIN (UniProt O60870) 0.056
LAMTOR4 (UniProt Q0VGL1) -0.002

compound: CC(C)(O)CC(=O)NCCn1ccc2ncnc(Nc3ccc(Oc4cccc(C(F)(F)F)c4)c(Cl)c3)c21; assay: as above
How it was run: as §1

log2 fold change, inactive:
KLHDC4 (UniProt Q8TBB5) -0.002
KIF5B (UniProt P33176) 0
KIAA2013 (UniProt Q8IYS2) 0.012
KIF1B isoform 2 (UniProt O60333) 0.012
KTI12 (UniProt Q96EK9) -0.081
KDSR (UniProt Q06136) -0.088
KIF2C (UniProt Q99661) 0.025
LANCL1 (UniProt O43813) -0.031
KPTN (UniProt Q9Y664) -0.061
LARP7 isoform 3 (UniProt Q4G0J3) -0.009
KDM8 isoform 3 (UniProt Q8N371) -0.035
KEAP1 (UniProt Q14145) -0.014
KLC2 (UniProt Q9H0B6) 0.008
KPNB1 (UniProt Q14974) -0.027
KSR1 (UniProt Q8IVT5) 0.021
KPNA2 (UniProt P52292) -0.023
KLHDC3 (UniProt Q9BQ90) -0.006
KYAT3 (UniProt Q6YP21) 0.001
LARP4 isoform 4 (UniProt Q71RC2) 0.058
KIF5A (UniProt Q12840) -0.039
KIAA1191 (UniProt Q96A73) -0.053
KIF2A isoform 4 (UniProt O00139) 0.009
KIAA1324L (UniProt A8MWY0) -0.026
KLHL18 (UniProt O94889) -0.007
KIF15 (UniProt Q9NS87) -0.022
KRR1 (UniProt Q13601) 0.042
LACTB (UniProt P83111) 0.025
KXD1 (UniProt Q9BQD3) -0.047
KMT2D isoform 3 (UniProt O14686) -0.022
KYAT1 (UniProt Q16773) -0.017
KIN (UniProt O60870) 0.047
LAMTOR4 (UniProt Q0VGL1) -0.007

compound: CC(C)C1=C2N=C(C=C(N2N=C1)NCC3=CC=CC=C3)NCCCCCCN; assay: as above
How it was run: as §1

log2 fold change, inactive:
KLHDC4 (UniProt Q8TBB5) 0.018
KIF5B (UniProt P33176) -0.003
KIAA2013 (UniProt Q8IYS2) -0.004
KIF1B isoform 2 (UniProt O60333) -0.041
KTI12 (UniProt Q96EK9) 0.017
KDSR (UniProt Q06136) -0.041
KIF2C (UniProt Q99661) -0.014
LANCL1 (UniProt O43813) -0.019
KPTN (UniProt Q9Y664) -0.072
LARP7 isoform 3 (UniProt Q4G0J3) 0.002
KDM8 isoform 3 (UniProt Q8N371) 0.004
KEAP1 (UniProt Q14145) -0.015
KLC2 (UniProt Q9H0B6) -0.001
KPNB1 (UniProt Q14974) -0.01
KSR1 (UniProt Q8IVT5) -0.025
KPNA2 (UniProt P52292) 0.009
KLHDC3 (UniProt Q9BQ90) 0.012
KYAT3 (UniProt Q6YP21) -0.029
LARP4 isoform 4 (UniProt Q71RC2) 0.013
KIF5A (UniProt Q12840) -0.011
KIAA1191 (UniProt Q96A73) 0.002
KIF2A isoform 4 (UniProt O00139) 0.002
KIAA1324L (UniProt A8MWY0) -0.031
KLHL18 (UniProt O94889) 0.045
KIF15 (UniProt Q9NS87) 0.01
KRR1 (UniProt Q13601) -0.04
LACTB (UniProt P83111) -0.009
KXD1 (UniProt Q9BQD3) -0.003
KMT2D isoform 3 (UniProt O14686) 0.009
KYAT1 (UniProt Q16773) 0.005
KIN (UniProt O60870) 0.006
LAMTOR4 (UniProt Q0VGL1) -0.002
